# Screen size: about 360,000 compounds; about 7,500 (2.1%) were called active. The shares of active, inactive and inconclusive entries below differ from those in the screen. Calls come from the whole dose curve; as a rule, active = well fitted inhibition curve with a large enough effect; inconclusive = small, poorly fitted or top-dose-only effect, or effect the other way; inactive = flat fitted curve, though single readings scatter. Potencies beside an inconclusive call are fits to weak or partial responses and may not hold up.
# Test: Nrf2 qHTS screen for inhibitors; note: nearly all actives have a fitted effect of over 60% in size
# Settings: A549 ARE-Fluc reporter, luciferase luminescence, 18-24 h; activity change, negative = inhibition: at 46 µM (top of the series)
# How it was run: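 A549 ARE_Fluc cells (5000/well, 5% FBS OPTI-MEM) pre-incubated 2 h, then treated with compounds 18-24 h at 37C/5% CO2 in concentration-response. CellTiter-Fluor viability read first; BugLite luciferase luminescence after 15 min at room temperature gives Nrf2 activity.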
# % is set by controls: 0 for no effect and ±100 for the full control effect; potency is the fitted concentration of half-maximal effect.
Structure (SMILES),Potency,"activity change, negative = inhibition"
CS(=O)(=O)Nc1ccc(C2=NN(C(=O)c3cccc(F)c3)C(c3cccs3)C2)cc1 (stereo not drawn),active: 18.4 µM,
COC(=O)CCSc1nc(N2CCOCC2)c2c(c1C#N)CC(C)(C)OC2,"inconclusive: 14.6 µM [falling, partial curve, poor fit]",
N#CC(C#N)=CN=c1ccn(Cc2ccc(Cl)cc2Cl)cc1,active: 1.84 µM,
Cc1cc2cc(CN(Cc3cccs3)C(=S)NCc3ccco3)c(=O)[nH]c2cc1C,"inconclusive: 25.9 µM [falling, single point]",
O=C(NC(=S)Nc1ccc(S(=O)(=O)Nc2nccs2)cc1)C1CC1,"inconclusive: 20.6 µM [falling, partial curve, poor fit]",
Cc1ccc(CN(C)c2ccc(S(=O)(=O)N3CCCC3)cn2)cc1,"inconclusive: 29.1 µM [falling, single point]",
CC(C)(C)OC(=O)N1CCC(c2c(C(=O)NCc3cccc(Cl)c3)cnn2-c2ccc(F)cc2)CC1,,inactive: -85.7%
O=C(C=C=Nc1ccccc1)C(=O)N=C=Cc1ccccc1,"inconclusive: 1.46 µM [falling, partial curve]",
CCc1ccccc1NC(=O)CSc1nc(-c2cccc(Cl)c2)nc2c1Cc1c(CO)cnc(C)c1O2,"inconclusive: 41.1 µM [activator, partial curve, poor fit]",
Cc1ccc(NC(=O)c2n[nH]c(=O)c3ccccc23)cc1S(=O)(=O)N1CCOCC1,"inconclusive: 29.1 µM [falling, single point]",
CN1CCC(OC(=O)c2ccccc2Cl)CC1,,inactive: 13.1%
CCc1ccc(OC(C)C(=O)N2CCC(c3nc4ccccc4o3)CC2)cc1 (stereo not drawn),"inconclusive: 25.9 µM [falling, partial curve, poor fit]",
Cc1ccc(S(=O)(=O)NCC(C)NS(=O)(=O)c2ccccc2[N+](=O)[O-])cc1 (stereo not drawn),"inconclusive: 20.6 µM [falling, partial curve, poor fit]",
CS(=O)(=O)c1ccc(S(=O)CC(=O)OCc2ccccc2)c([N+](=O)[O-])c1 (stereo not drawn),active: 18.4 µM,
NC(=O)C(OC(=O)CNC(=O)C1CCCCC1)c1ccccc1 (stereo not drawn),,inactive: 6.91%
Cc1ccc(N(C(=O)CNC(=O)c2ccco2)C(C(=O)NC2CCCCC2)c2ccncc2)c(C)c1 (stereo not drawn),,inactive: -17.9%
O=C(c1ccc(Cl)s1)N1CCCC(N2CCN(c3ccc(F)cc3)CC2)C1 (stereo not drawn),"inconclusive: 25.9 µM [falling, partial curve, poor fit]",
N#Cc1c2ccc(OCC(N)=O)cc2n2ccccc12,"inconclusive: 29.1 µM [falling, single point]",

# Grouped by structure, the entries above containing a cyano group (three)
Structure (SMILES),Potency,"activity change, negative = inhibition"
COC(=O)CCSc1nc(N2CCOCC2)c2c(c1C#N)CC(C)(C)OC2,"inconclusive: 14.6 µM [falling, partial curve, poor fit]",
N#CC(C#N)=CN=c1ccn(Cc2ccc(Cl)cc2Cl)cc1,active: 1.84 µM,
N#Cc1c2ccc(OCC(N)=O)cc2n2ccccc12,"inconclusive: 29.1 µM [falling, single point]",
